Reference: article PMC7693245
These are yes or no findings as the source states them, for the method shown. Binding seen in cells or lysates may run through a third protein. Some binding calls cover weakened binding; strength is not graded here. For some assays here: Sequences can lack the tags named with a protein. Values belong to the molecule of their own block, whether it stands above or below them.

By UniProt entry, the sequences of proteins in these tests, tags left out.
UniProt P35222: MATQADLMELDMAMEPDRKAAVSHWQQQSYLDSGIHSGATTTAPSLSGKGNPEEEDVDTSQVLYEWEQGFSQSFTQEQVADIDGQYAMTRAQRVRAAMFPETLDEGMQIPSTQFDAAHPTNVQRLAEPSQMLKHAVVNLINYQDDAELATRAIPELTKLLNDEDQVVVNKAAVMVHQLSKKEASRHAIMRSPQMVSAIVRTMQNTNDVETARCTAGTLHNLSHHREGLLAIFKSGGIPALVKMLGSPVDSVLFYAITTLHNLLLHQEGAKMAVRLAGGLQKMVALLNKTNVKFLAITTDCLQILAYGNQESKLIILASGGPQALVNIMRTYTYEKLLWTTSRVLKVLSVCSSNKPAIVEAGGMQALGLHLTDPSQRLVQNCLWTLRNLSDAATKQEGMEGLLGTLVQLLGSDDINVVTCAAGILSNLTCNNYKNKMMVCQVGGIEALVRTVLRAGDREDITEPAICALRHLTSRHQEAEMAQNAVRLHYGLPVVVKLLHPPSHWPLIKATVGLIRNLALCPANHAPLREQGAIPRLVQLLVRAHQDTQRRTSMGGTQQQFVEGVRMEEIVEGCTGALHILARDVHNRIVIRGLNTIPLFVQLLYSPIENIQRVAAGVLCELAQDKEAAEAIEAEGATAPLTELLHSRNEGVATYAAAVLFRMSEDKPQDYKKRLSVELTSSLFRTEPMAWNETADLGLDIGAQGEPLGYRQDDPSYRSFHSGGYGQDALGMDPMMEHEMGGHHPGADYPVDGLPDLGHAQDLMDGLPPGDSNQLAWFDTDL

Legend:
[1] = biological target: T1, FOXM1 of the co-immunoprecipitation with β-catenin (Figure S3) (UniProt Q08050); assay: co-IP; co-immunoprecipitation of FOXM1 and β-catenin in A549 and H1299 cells (Figure S3); bait and antibodies not told
T1 sequence: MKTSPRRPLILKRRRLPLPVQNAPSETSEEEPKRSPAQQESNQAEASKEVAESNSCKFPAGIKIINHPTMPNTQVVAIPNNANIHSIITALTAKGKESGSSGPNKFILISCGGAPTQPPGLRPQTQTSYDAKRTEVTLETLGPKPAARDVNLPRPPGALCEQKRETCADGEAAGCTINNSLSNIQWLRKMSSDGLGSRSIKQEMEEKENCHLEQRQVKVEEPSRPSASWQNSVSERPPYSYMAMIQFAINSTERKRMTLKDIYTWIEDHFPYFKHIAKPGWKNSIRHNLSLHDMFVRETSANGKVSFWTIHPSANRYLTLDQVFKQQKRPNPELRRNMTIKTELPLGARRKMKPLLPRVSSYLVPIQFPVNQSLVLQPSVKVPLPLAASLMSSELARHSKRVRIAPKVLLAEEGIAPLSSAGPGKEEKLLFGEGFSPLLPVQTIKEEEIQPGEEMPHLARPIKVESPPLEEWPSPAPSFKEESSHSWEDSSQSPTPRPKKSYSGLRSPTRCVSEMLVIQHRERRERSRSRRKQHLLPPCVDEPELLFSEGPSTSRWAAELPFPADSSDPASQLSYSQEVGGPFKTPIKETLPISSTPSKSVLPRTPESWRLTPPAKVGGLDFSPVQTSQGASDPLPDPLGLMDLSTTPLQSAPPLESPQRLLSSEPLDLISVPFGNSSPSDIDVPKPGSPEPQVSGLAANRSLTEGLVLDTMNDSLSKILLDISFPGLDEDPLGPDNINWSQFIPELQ

[2] = biological target: T2, FLAG-tagged family with sequence similarity 188 member B (FAM188B) (UniProt Q4G0A6); assay: co-IP; cells transfected with FLAG-tagged FAM188B; lysed in M-PER buffer with protease inhibitor; 500 ug lysate with anti-FLAG-M2 agarose beads, 4 °C, 16 h; FOXM1 detected by immunoblot; A549, H1299 and PC9 cells
T2 sequence: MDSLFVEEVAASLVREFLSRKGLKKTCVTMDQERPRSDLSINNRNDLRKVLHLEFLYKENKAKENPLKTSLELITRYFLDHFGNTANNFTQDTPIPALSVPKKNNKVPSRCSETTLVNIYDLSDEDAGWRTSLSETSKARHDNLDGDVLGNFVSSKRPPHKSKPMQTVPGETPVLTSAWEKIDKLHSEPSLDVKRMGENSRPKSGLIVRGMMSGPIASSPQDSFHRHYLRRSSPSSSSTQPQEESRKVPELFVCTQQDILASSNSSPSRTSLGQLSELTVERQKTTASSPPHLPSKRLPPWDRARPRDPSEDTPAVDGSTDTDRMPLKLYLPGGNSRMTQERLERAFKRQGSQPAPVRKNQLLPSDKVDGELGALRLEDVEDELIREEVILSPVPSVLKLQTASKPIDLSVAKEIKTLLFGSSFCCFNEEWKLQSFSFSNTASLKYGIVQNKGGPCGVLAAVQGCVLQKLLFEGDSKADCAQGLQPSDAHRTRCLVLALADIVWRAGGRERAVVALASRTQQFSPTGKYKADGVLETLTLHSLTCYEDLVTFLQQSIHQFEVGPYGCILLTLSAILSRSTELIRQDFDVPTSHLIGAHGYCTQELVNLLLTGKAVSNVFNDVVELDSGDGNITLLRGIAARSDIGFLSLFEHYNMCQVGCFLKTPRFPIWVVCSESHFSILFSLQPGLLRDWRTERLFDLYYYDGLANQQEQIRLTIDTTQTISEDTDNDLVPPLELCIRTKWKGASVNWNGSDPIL

- binding [1]: binds
Molecule: β-catenin (from UniProt P35222 1-781)

- binding [2]: binds
B1: Forkhead box M1 (FOXM1) (protein, UniProt Q08050 1-763)
chain: MKTSPRRPLILKRRRLPLPVQNAPSETSEEEPKRSPAQQESNQAEASKEVAESNSCKFPAGIKIINHPTMPNTQVVAIPNNANIHSIITALTAKGKESGSSGPNKFILISCGGAPTQPPGLRPQTQTSYDAKRTEVTLETLGPKPAARDVNLPRPPGALCEQKRETCADGEAAGCTINNSLSNIQWLRKMSSDGLGSRSIKQEMEEKENCHLEQRQVKVEEPSRPSASWQNSVSERPPYSYMAMIQFAINSTERKRMTLKDIYTWIEDHFPYFKHIAKPGWKNSIRHNLSLHDMFVRETSANGKVSFWTIHPSANRYLTLDQVFKPLDPGSPQLPEHLESQQKRPNPELRRNMTIKTELPLGARRKMKPLLPRVSSYLVPIQFPVNQSLVLQPSVKVPLPLAASLMSSELARHSKRVRIAPKVLLAEEGIAPLSSAGPGKEEKLLFGEGFSPLLPVQTIKEEEIQPGEEMPHLARPIKVESPPLEEWPSPAPSFKEESSHSWEDSSQSPTPRPKKSYSGLRSPTRCVSEMLVIQHRERRERSRSRRKQHLLPPCVDEPELLFSEGPSTSRWAAELPFPADSSDPASQLSYSQEVGGPFKTPIKETLPISSTPSKSVLPRTPESWRLTPPAKVGGLDFSPVQTSQGASDPLPDPLGLMDLSTTPLQSAPPLESPQRLLSSEPLDLISVPFGNSSPSDIDVPKPGSPEPQVSGLAANRSLTEGLVLDTMNDSLSKILLDISFPGLDEDPLGPDNINWSQFIPELQ
